Measurements published in the supplement of paper PMC12067093, “Discovery and optimisation of a covalent ligand for TRIM25 and its application to targeted protein ubiquitination” (Chemical Science, 2025).
This is one part of the list.

By UniProt entry, the sequences of proteins in these tests, tags left out. Where a name states a change or a piece, a line headed by the entry shows the natural chain unless it says otherwise.
UniProt Q96AE7: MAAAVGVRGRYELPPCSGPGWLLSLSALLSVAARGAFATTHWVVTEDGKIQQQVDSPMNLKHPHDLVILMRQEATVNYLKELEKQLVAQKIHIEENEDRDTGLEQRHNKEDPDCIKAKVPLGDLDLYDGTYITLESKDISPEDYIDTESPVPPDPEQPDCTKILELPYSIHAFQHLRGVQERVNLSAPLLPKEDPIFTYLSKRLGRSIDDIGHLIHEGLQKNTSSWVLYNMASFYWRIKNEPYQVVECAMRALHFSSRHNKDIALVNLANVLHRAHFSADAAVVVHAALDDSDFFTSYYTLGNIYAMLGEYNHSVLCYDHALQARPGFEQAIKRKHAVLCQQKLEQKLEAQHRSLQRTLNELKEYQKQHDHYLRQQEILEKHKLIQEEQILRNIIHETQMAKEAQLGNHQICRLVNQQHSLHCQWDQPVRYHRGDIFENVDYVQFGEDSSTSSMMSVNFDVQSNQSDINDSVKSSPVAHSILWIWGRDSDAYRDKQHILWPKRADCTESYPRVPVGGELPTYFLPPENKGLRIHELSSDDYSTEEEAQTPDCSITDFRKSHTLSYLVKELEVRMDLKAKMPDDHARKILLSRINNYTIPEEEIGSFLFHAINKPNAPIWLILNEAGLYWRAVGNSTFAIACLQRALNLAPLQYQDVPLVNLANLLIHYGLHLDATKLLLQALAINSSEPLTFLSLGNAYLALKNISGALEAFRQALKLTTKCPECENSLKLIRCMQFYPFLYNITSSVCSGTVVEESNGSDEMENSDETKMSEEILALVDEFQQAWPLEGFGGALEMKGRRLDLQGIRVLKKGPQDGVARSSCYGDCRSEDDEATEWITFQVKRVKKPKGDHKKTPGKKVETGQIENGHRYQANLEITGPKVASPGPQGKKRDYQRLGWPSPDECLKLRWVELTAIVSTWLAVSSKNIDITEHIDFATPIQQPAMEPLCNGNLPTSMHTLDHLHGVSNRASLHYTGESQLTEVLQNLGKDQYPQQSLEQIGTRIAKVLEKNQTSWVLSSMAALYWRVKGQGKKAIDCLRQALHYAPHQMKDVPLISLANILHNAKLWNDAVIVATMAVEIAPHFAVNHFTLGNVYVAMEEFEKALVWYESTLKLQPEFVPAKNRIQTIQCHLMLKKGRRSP
UniProt Q14166: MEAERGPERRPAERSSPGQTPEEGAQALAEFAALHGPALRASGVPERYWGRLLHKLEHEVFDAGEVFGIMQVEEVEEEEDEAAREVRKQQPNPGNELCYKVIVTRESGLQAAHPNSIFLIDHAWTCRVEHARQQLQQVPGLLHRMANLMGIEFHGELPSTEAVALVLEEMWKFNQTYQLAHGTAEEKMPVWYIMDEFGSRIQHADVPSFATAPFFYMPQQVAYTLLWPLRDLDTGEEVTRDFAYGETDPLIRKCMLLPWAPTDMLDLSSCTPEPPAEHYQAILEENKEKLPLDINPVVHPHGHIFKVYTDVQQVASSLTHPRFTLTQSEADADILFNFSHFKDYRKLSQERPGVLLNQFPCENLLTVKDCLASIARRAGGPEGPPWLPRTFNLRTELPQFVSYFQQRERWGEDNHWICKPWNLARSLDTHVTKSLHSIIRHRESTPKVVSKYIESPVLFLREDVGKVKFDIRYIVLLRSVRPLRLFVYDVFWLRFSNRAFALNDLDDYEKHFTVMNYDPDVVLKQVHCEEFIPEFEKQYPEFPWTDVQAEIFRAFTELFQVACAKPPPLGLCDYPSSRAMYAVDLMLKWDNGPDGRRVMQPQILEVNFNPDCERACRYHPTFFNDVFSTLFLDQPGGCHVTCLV
UniProt Q96QT4: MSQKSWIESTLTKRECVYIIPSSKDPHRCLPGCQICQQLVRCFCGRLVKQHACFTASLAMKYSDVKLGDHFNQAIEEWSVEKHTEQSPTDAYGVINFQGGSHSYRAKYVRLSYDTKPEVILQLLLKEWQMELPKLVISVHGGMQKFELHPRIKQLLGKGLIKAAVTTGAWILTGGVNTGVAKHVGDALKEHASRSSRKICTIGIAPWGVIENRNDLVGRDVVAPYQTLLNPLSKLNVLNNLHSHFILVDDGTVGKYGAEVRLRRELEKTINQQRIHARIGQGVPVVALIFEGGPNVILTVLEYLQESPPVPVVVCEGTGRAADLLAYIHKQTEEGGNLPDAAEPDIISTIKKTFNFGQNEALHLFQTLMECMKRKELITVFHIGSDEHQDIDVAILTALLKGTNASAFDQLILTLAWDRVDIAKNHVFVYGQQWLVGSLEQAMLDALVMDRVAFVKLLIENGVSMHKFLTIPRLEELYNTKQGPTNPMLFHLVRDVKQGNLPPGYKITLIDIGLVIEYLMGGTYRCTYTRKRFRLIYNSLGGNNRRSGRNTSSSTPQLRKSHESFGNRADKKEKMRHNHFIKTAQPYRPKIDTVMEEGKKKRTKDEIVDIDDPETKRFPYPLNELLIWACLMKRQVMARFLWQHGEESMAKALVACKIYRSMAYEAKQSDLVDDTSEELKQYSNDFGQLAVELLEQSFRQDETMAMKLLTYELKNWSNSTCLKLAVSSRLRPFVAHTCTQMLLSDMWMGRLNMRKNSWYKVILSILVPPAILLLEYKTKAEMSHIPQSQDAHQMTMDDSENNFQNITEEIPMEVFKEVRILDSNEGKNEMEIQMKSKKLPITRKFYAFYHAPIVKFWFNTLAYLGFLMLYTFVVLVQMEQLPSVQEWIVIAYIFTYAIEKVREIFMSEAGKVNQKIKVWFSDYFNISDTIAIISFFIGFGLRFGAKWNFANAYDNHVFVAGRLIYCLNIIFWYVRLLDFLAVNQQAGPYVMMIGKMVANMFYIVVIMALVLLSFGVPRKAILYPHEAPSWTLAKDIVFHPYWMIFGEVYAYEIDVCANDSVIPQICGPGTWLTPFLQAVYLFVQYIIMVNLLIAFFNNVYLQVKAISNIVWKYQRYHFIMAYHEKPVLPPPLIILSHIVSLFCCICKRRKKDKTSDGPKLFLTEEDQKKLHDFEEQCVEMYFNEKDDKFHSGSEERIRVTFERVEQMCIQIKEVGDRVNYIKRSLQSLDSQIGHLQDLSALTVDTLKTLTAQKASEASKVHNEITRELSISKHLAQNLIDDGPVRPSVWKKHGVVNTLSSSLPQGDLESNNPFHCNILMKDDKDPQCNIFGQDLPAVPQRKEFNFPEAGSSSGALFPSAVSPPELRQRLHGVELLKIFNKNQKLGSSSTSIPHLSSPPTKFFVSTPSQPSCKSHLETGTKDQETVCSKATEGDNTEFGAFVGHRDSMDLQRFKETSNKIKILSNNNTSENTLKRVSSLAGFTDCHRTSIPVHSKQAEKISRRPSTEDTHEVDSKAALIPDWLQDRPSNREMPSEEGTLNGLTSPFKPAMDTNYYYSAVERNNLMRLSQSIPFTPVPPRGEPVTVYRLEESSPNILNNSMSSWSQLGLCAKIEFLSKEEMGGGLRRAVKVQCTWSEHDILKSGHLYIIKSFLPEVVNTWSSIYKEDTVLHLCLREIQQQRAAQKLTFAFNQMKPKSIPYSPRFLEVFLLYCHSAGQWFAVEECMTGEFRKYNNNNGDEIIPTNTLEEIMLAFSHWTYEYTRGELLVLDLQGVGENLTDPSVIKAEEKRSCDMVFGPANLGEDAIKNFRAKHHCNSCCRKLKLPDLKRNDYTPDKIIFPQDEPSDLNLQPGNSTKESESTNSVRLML
UniProt Q6PGP7, whole entry, looked up: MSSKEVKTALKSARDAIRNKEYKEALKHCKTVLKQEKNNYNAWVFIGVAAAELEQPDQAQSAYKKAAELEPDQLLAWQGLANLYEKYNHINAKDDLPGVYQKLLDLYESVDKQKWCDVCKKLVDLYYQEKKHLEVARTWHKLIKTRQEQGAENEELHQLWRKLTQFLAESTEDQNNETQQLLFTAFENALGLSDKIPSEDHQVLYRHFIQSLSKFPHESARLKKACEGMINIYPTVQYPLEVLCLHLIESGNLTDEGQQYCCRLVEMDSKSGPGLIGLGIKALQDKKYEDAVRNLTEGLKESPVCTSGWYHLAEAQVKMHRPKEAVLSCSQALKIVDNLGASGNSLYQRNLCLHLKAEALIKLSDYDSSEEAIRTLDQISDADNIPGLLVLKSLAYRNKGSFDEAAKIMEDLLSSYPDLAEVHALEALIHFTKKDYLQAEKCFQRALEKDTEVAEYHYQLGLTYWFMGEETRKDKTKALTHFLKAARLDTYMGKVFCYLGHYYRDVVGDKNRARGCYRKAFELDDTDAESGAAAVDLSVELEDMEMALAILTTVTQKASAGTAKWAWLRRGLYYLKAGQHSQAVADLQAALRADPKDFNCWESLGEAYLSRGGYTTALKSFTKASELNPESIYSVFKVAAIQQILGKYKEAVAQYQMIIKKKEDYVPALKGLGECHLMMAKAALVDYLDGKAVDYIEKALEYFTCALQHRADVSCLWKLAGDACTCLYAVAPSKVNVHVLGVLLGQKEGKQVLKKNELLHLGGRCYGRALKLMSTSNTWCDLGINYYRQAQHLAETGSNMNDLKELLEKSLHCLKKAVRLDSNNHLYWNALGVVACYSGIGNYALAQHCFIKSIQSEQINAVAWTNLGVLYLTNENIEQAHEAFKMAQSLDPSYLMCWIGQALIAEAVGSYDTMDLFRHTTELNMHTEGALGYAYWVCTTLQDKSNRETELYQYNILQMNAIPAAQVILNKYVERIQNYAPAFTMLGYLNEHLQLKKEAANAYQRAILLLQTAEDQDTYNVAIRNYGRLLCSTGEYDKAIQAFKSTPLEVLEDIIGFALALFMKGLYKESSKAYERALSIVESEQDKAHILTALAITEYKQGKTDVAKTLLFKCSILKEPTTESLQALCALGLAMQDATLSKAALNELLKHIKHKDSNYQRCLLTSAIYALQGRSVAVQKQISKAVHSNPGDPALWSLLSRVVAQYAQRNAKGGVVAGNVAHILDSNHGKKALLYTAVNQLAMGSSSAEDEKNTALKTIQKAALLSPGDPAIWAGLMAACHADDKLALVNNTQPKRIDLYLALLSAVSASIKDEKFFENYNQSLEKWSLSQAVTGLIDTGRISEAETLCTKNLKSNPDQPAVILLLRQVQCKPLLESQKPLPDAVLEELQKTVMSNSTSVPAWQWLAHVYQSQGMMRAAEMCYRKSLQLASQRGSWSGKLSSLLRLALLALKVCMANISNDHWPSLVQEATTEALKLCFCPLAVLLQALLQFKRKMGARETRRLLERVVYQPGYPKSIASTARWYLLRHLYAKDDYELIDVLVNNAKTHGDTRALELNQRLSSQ
UniProt Q8N584: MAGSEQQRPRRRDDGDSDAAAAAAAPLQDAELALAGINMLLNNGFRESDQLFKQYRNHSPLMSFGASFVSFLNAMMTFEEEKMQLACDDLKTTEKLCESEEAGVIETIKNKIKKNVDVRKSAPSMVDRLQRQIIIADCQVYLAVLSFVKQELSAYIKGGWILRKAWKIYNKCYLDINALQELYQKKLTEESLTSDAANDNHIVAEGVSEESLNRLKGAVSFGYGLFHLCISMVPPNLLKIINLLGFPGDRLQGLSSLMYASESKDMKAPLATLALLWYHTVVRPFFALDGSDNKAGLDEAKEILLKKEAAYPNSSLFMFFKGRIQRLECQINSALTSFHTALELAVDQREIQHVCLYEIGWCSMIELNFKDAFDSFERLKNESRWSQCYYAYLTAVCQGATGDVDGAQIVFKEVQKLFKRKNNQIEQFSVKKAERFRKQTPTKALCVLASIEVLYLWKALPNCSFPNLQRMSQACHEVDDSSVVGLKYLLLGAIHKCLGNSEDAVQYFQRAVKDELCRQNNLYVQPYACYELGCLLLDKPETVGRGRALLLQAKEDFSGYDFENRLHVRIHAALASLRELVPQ
UniProt O95801: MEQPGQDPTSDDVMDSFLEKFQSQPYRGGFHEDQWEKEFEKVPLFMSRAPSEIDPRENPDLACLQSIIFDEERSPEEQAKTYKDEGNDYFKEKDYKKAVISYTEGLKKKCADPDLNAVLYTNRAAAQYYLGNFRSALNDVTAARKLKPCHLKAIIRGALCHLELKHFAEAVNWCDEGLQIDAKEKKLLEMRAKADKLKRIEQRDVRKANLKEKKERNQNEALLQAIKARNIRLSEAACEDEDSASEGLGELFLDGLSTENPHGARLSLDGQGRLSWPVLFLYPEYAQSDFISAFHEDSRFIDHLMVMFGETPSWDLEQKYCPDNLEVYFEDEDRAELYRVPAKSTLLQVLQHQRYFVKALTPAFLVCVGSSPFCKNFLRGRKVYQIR
UniProt Q99614: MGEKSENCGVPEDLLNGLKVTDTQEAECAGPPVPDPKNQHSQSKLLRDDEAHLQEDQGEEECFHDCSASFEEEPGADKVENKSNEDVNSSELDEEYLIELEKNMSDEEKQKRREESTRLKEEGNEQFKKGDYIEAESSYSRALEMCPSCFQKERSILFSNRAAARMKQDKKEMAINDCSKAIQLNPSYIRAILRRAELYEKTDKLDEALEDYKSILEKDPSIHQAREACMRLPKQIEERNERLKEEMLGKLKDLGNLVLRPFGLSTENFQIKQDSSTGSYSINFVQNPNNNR

These targets were tested with CC1Cc2ccccc2N1C(=O)C1CCCN(C1)C(=O)CCl (mixture of isomers) [TRIM25 ligand 11 (diastereomer mixture)] (assay: probe-labelled cysteine peptide fold change vs DMSO (competition) (log2 fold change); higher = less target engagement (more negative = stronger competition)). Settings: 10 µM; THP-1; incubation time: 4 h.
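Note: competitive chemoproteomic profiling in live THP-1 cells with an iodoacetamide desthiobiotin (IA-DTB) probe, comparing probe-labelled peptide intensities in compound-treated cells against DMSO-treated controls.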

In order of falling “probe-labelled cysteine peptide fold change” value:
1. TTC17_Q96AE7_340_HAVLCQQK (UniProt Q96AE7)  0.279
2. TTC17_Q96AE7_725_CPECENSLK (UniProt Q96AE7)  0.124
3. TTLL12_Q14166_563+572_AFTELFQVACAKPPPLGLCDYPSSR (UniProt Q14166)  0.119
4. TRPM7_Q96QT4_200_ICTIGIAPWGVIENR (UniProt Q96QT4)  0.104
5. TUFM_P49411_127_HYAHTDCPGHADYVK (UniProt P49411)  0.102
6. TTC28_Q96AY4_816_CYEEQLDLGQK (UniProt Q96AY4)  0.0873
7. TTLL12_Q14166_361_LSQERPGVLLNQFPCENLLTVK (UniProt Q14166)  0.0747
8. TUBB6_Q9BUF5_127+129_ECEHCDCLQGFQLTHSLGGGTGSGMGTLLISK (UniProt Q9BUF5)  0.0741
9. TTC37_Q6PGP7_1349_ISEAETLCTK (UniProt Q6PGP7)  0.0652
10. TUT4_Q5TAX3_309_LCLIHIENIQGAHK (UniProt Q5TAX3)  0.058
11. TTC17_Q96AE7_506_RADCTESYPR (UniProt Q96AE7)  0.0404
12. TRPM2_O94759_72_ECVYFVESSK (UniProt O94759)  0.0366
13. TRMT2A_Q8IZ69_392_CIHEDLLGLTFR (UniProt Q8IZ69)  0.0348
14. TROVE2_P10155_71_GCEVIQEIK (UniProt P10155)  0.0303
15. TTC39C_Q8N584_475_MSQACHEVDDSSVVGLK (UniProt Q8N584)  0.0296
16. TTF1_Q15361_708_LQENPESCLSIVR (UniProt Q15361)  0.0166
17. TUBB6_Q9BUF5_127_ECEHCDCLQGFQLTHSLGGGTGSGMGTLLISK (UniProt Q9BUF5)  0.0152
18. TTC37_Q6PGP7_705_ALEYFTCALQHR (UniProt Q6PGP7)  -0.00615
19. TSR2_Q969E8_114_EMASCITQR (UniProt Q969E8)  -0.0138
20. TUFM_P49411_290_KGDECELLGHSK (UniProt P49411)  -0.0183
21. TTC4_O95801_63_ENPDLACLQSIIFDEERSPEEQAK (UniProt O95801)  -0.0205
22. TUT4_Q5TAX3_966_CFDELSPPCSEQHNR (UniProt Q5TAX3)  -0.0327
23. TSC1_Q92574_822_VCHTELLLSQVSQK (UniProt Q92574)  -0.0685
24. TTC4_O95801_110_CADPDLNAVLYTNR (UniProt O95801)  -0.0693
25. TTC39C_Q8N584_97_LCESEEAGVIETIK (UniProt Q8N584)  -0.0716
26. TSEN34_Q9BSV6_262_FHAHYIAQCWAPEDTIPLQDLVAAGR (UniProt Q9BSV6)  -0.109
27. TRRAP_Q9Y4A5_1868_LMTFAWPCLLSK (UniProt Q9Y4A5)  -0.115
28. TRPM7_Q96QT4_1426_DQETVCSK (UniProt Q96QT4)  -0.118
29. TUBA4A_P68366_4_MRECISVHVGQAGVQMGNACWELYCLEHGIQPDGQMPSDK (UniProt P68366)  -0.126
30. TTC37_Q6PGP7_1162_CLLTSAIYALQGR (UniProt Q6PGP7)  -0.13
31. TROVE2_P10155_99_QEPMLFALAICSQCSDISTK (UniProt P10155)  -0.132
32. TUBGCP3_Q96CW5_388_TLAALVDHCQGRK (UniProt Q96CW5)  -0.158
33. TUT7_Q5VYS8_775_RGEHVVCGSTR (UniProt Q5VYS8)  -0.194
34. TTC1_Q99614_28_VTDTQEAECAGPPVPDPKNQHSQSK (UniProt Q99614)  -0.236
35. TTLL12_Q14166_361_KLSQERPGVLLNQFPCENLLTVK (UniProt Q14166)  -0.237
36. TRPV2_Q9Y5S1_218_GQGTCFYFGELPLSLAACTK (UniProt Q9Y5S1)  -0.274
37. TXN2_Q99757_93_VVNSETPVVVDFHAQWCGPCK (UniProt Q99757)  -0.376
